Experimental data: publication PMC11335265

Sequences of proteins named here, by UniProt entry; tags and fusion partners are left off. A change or cut given only in a name is not applied to a line headed by its entry.
UniProt Q10743: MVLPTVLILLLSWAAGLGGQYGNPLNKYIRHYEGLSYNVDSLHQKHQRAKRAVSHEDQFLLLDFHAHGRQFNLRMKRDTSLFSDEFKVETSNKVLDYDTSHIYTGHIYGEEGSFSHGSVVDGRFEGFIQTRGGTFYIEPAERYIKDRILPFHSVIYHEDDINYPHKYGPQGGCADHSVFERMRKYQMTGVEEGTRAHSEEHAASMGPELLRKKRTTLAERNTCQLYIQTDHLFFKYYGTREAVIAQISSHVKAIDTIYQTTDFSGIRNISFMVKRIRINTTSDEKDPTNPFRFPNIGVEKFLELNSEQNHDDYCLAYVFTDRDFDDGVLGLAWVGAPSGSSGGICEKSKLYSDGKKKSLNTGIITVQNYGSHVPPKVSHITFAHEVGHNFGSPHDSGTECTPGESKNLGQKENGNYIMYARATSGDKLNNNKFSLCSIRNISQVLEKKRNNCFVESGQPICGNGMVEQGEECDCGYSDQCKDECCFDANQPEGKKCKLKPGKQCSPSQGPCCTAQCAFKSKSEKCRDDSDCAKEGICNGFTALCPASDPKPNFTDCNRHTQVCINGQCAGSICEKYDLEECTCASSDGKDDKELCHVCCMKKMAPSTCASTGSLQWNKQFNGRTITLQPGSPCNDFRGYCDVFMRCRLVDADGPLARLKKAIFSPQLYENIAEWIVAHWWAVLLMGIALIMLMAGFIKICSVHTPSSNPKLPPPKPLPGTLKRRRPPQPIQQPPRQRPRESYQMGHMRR
UniProt Q62747: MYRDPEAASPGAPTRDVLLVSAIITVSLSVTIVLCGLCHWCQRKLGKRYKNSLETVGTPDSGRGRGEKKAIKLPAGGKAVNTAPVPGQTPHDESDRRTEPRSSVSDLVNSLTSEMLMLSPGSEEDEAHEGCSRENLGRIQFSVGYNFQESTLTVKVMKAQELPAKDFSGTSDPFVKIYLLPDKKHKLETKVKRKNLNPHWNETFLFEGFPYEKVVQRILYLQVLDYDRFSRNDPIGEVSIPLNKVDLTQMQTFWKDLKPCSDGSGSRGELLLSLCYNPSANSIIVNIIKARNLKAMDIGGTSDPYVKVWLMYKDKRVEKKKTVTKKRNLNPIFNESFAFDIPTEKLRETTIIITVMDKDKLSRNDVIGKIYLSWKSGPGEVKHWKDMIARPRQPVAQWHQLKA

Target: ADAM10, endogenous in primary rat hippocampal neurons (rat (endogenous in primary hippocampal neurons)) (UniProt Q10743)
Assay: proximity ligation; Duolink In Situ kit on fixed mature (div17/18) hippocampal cultures with rabbit ADAM10 and mouse syt7 antibodies; antibody-negative controls; co-stained with phalloidin and bassoon

synaptotagmin 7 (syt7), endogenous in primary rat hippocampal neurons (from UniProt Q62747 1-403)
binding: binds

These are yes or no findings as the source states them, for the method shown. In cells and extracts the contact can be indirect. Binding can be weak; no strength is given.
